# Measured values as given in the supplement of paper PMC10735217.
# Where a name gives a salt, the structure may show the parent alone. The list shows a part of the results. Repeats in this data set agree poorly, so a single value says little.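 Human kidney-derived cells stably carry a construct in which eight TEAD-binding elements drive luciferase, measured by luminescence in a drug-repurposing library screen. A hit is any compound whose signal exceeds the plate mean by more than five robust Z scores.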
# System: HEK293A TEAD-LUC reporter
# Experiment: TEAD-luciferase reporter activity (YAP activation), robust Z score vs plate; higher = stronger YAP/TEAD activation
# Conditions: 24 h
SMILES,TEAD-luciferase reporter activity (compound concentration: 200 nM),TEAD-luciferase reporter activity (compound concentration: 2 uM),TEAD-luciferase reporter activity (compound concentration: 10 uM)
CC(C)NCCCC1(C(N)=O)c2ccccc2-c2ccccc21,inactive: -1.23,inactive: 0.196,inactive: 2.26
"CCCCC/C=C\C=C\CCCCCCCCC(=O)O [trans-10,cis-12-Conjugated linoleic acid]",inactive: -1.47,inactive: -1.65,inactive: -0.0212
CC(=O)N1CCC(C(=O)N2CCC(N3Cc4ccccc4C3=O)CC2)CC1,inactive: -0.266,–,inactive: 1.66
CS(=O)(=O)c1ccc([C@@H](O)[C@@H](CO)NC(=O)C(Cl)Cl)cc1 [Thiamphenicol],inactive: -1.61,inactive: 0.0325,active: 5.55
O=C1NC(CCCl)Oc2ccccc21 (stereo not drawn),inactive: 0.911,inactive: -0.913,inactive: 0.813
CN1CCN(C2=Cc3ccccc3/C(=C\C#N)c3ccc(Cl)cc32)CC1,inactive: -0.185,inactive: 2.71,inactive: -0.289
CC(C)CCC[C@@H](C)[C@H]1CC[C@H]2[C@@H]3[C@@H](C)C[C@H]4N(C)C(=O)CC[C@]4(C)[C@H]3CC[C@]12C,inactive: -0.665,inactive: -1.36,inactive: -1.39
O=C(C1CC1)N1CCN(c2nc3ncccc3o2)CC1,inactive: -3.37,–,inactive: 4.21
COc1ccc(CC(=O)Nc2cc3c(cc2[N+](=O)[O-])OC(C)(C)[C@H](O)[C@H]3NC2CC2)cc1,inactive: 2.26,inactive: 0.264,inactive: 1.76
COc1ccc(CCN(C)CCCOc2ccc(S(=O)(=O)c3c(C(C)C)cn4ccccc34)cc2)cc1OC,inactive: -0.256,inactive: 0.389,inactive: -1.21
CCN1C(=O)CC2(CCN(C)CC2)C1=O,inactive: -1.17,inactive: -1.35,inactive: 1.69
COc1ccccc1CCC(=O)Oc1cccc2ccccc12,inactive: -1.96,inactive: -0.378,inactive: 3.37
CC(C)(C)[C@H](NC(=O)C(CC1CCCC1)CN(O)C=O)C(=O)N1CCN(Cc2nccs2)CC1 (stereo partly drawn),inactive: -1.37,inactive: 1.05,inactive: -0.806
CN1[C@@H]2CC[C@H]1C[C@@H](OC(c1ccccc1)c1ccccc1)C2,inactive: -0.923,–,inactive: 0.963
CN1[C@@H]2CC[C@H]1C[C@@H](OC(c1ccccc1)c1ccccc1)C2 [Benzatropine mesilate],–,inactive: 2.5,–
N#Cc1ccccc1OCC(O)CNCCNC(=O)Nc1ccccc1 (stereo not drawn),inactive: -2.54,inactive: -1.46,inactive: 0.295
CCCCN1CCCC1CNC(=O)c1cc(S(N)(=O)=O)cc2c1OC(C)C2 (stereo not drawn),inactive: 1.01,inactive: -0.958,inactive: 1.61
O=C(Nc1nn[nH]n1)c1cc(Oc2ccccc2)c2ccccn2c1=O [Quinotolast sodium],inactive: -1.97,inactive: -1.41,inactive: 0.934

SMILES,TEAD-luciferase reporter activity (compound concentration: 200 nM),TEAD-luciferase reporter activity (compound concentration: 2 uM),TEAD-luciferase reporter activity (compound concentration: 10 uM)
c1ccc(COc2ccc(CCNc3ccc4cnn(CCN5CCCC5)c4c3)cc2)cc1,inactive: 2.38,inactive: -0.268,inactive: 1.5
[NH2][Pt]([NH2])([Cl])[Cl],inactive: -0.406,inactive: -0.136,active: 5.23
"Nc1nc(=O)n([C@@H]2CS[C@H](CO)O2)cc1F (racemic) [FTC, racemic]",–,inactive: 0.219,–
CC(C)(C)C(=O)S[C@H]1CO[C@H]2[C@@H]1OC[C@H]2O[N+](=O)[O-],inactive: 1.66,inactive: 0.033,inactive: 0.236
O=C(CCc1ccc(O)cc1)c1c(O)cc(O)cc1OC1O[C@H](CO)[C@@H](O)[C@H](O)[C@H]1O (stereo partly drawn) [Phlorizin],inactive: -1.49,inactive: 0.952,inactive: 2.33
CC(C)(C)N[C@H]1C=CC(c2ccccc2)(c2ccccc2)C1,inactive: 1.79,inactive: 4.53,inactive: 3.2
c1ccc(C2CCc3ccccc3O2)cc1 (stereo not drawn) [2-phenylchromane],inactive: 0.00897,inactive: -1.43,inactive: -0.163
O=C(Nc1cc(C(F)(F)F)cc(C(F)(F)F)c1)c1cc(Cl)ccc1O,inactive: -1.9,inactive: -1.13,inactive: -2.08
C1CCC(C(CC2CCCCN2)C2CCCCC2)CC1 (stereo not drawn),inactive: 0.096,inactive: -0.956,inactive: -0.0521
CC(=O)NC1C(O)CC(OCC2OC(OC3C(CO)OC(O)C(O)C3O)C(O)C(O)C2O)(C(=O)[O-])OC1[C@H](O)[C@H](O)CO (stereo partly drawn) [6'-Sialyllactose],inactive: -1.05,inactive: 2.21,inactive: -1.01
NCCCC[C@H](NC(=O)[C@@H](Cc1ccccc1)NC(=O)[C@H](Cc1c[nH]c2ccccc12)NC(=O)[C@@H](CCCCN)NC(=O)[C@@H](Cc1c[nH]c2ccccc12)NC(=O)[C@@H](N)Cc1cnc[nH]1)C(N)=O,inactive: 0.815,inactive: -0.503,inactive: -0.717
CC(=O)N(CC(O)CO)c1c(I)c(C(=O)NCCO)c(I)c(C(=O)NCC(O)CO)c1I (stereo not drawn) [Ioxilan],inactive: -0.148,inactive: 0.297,inactive: 0.371
CC1OC(=O)N2c3ccc(O)cc3CCC12 (stereo not drawn),inactive: -1.97,inactive: 0.378,inactive: 1.07
COc1ccc(CS(=O)c2ncccc2C(=O)Nc2cc(C)nc(C)c2)c(OC)c1 (stereo not drawn),inactive: -1.1,inactive: 0.464,inactive: -1
Cc1nn(C2CCCC2)c2nc(-c3ccncc3)[nH]c(=O)c12,inactive: -1.63,inactive: -1.01,inactive: -1.88
CCCCCC(CCCC)OC(=O)C(C[C@H](NC(=O)C(N)CC)C(=O)N[C@@H](CC1C=NC=N1)C(=O)N[C@@H](Cc1ccccc1)C(=O)N[C@H](CCCCN)C(=O)N[C@@H](Cc1ccccc1)C(=O)O)[S+](C)[O-] (stereo partly drawn),inactive: 0.132,inactive: -1.37,inactive: 1.09
CCc1nc(C)ccc1O [Emoxipin hydrochloride],inactive: -0.212,inactive: 1.28,inactive: -0.989

# Complete entries, quoted from the list. Values in the order: TEAD-luciferase reporter activity (compound concentration: 200 nM) | TEAD-luciferase reporter activity (compound concentration: 2 uM) | TEAD-luciferase reporter activity (compound concentration: 10 uM)
# CCCCCC(CCCC)OC(=O)C(C[C@H](NC(=O)C(N)CC)C(=O)N[C@@H](CC1C=NC=N1)C(=O)N[C@@H](Cc1ccccc1)C(=O)N[C@H](CCCCN)C(=O)N[C@@H](Cc1ccccc1)C(=O)O)[S+](C)[O-] (stereo partly drawn) is listed with inactive: 0.132 | inactive: -1.37 | inactive: 1.09
# O=C(CCc1ccc(O)cc1)c1c(O)cc(O)cc1OC1O[C@H](CO)[C@@H](O)[C@H](O)[C@H]1O (stereo partly drawn) [Phlorizin] is listed with inactive: -1.49 | inactive: 0.952 | inactive: 2.33
